Data: US6436310B1, “Deicing solution” (Sears Petroleum & Transport Corporation, priority 1998, dated 2002)

Assay: Corrosion rate, SHRP H205.7 Test Method for Evaluation of Corrosive Effects of Deicing Chemicals

## [Cl-].[Cl-].[Mg+2] [Mg Cl2, magnesium chloride]
4.1% carbohydrate
  Corrosion Rate, One Week: 0.89 mils per year
  Corrosion Rate, Six weeks: 0.40 mils per year
  Corrosion Rate, Three weeks: 0.61 mils per year
Carbohydrate Nil
  Corrosion Rate, One Week: 2.58 mils per year
  Corrosion Rate, Six weeks: 1.73 mils per year
  Corrosion Rate, Three weeks: 1.93 mils per year

## [Cl-].[Na+] [Sodium Chloride, sodium chloride]
Carbohydrate Nil
  Corrosion Rate, One Week: 5.97 mils per year
  Corrosion Rate, Six weeks: 5.48 mils per year
  Corrosion Rate, Three weeks: 4.66 mils per year
